Data as given in PubChem BioAssay AID1259308 (NCATS, 2017).
In all, the deposit lists about 59,000 reagents; this is a random part of them. About 1,510 of all reagents (2.6%) count as active. 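Calls use total luciferase alone and ignore viability, so some active siRNAs may act by altering cell number.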 Unmarked entries are inactive. The numbers tell different reagents against one gene apart. No sequences are given here.

Screen: 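Genes whose loss raises luciferase production in HEK293 cells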 (primary screen)
System: human HEK293 embryonic kidney cells stably expressing firefly luciferase (HEK-CMV-Luc2-Hygro)
Knock-down reagent: single siRNA against human genes, 0.8 pmol siRNA per well
Timing: 72 h
Measured: 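Reporter luminescence and viable-cell signal on separate replicate plates, given as percent of non-targeting control and median/MAD z-scores, plus per-cell luciferase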
Reading the numbers: total luciferase, z-score and total luciferase, % of control: higher = more reporter protein produced; luciferase per cell, z-score: higher = more reporter output per viable cell; viable cells, % of control: higher = more viable cells
Rule for the call: 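Active when the median/MAD z-score for overall luciferase is greater than 3; a gene was taken forward for validation with new siRNAs if at least two of its three siRNAs passed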
Calls: active = raised luciferase; inactive = no rise

gene	reagent	total luciferase, z-score	total luciferase, % of control	luciferase per cell, z-score	viable cells, % of control
DNAJB9	1	-0.0389	81.1	-0.275	97.4
DNAJB9	2	-2.16	39	-2.8	91.1
DNAJB9	3	0.546	92.7	0.348	94.6
RAB6A	1	0.609	94	-0.032	106
RAB6A	2	-0.14	79.1	-0.759	108
RAB6A	3	-1.34	55.3	-1.75	98.1
ITPR3	1	-0.499	72	-1.1	107
ITPR3	2	0.563	93.1	0.848	83.2
ITPR3	3	0.472	91.3	0.166	97.6
ENPP7	1	-0.72	67.6	-0.849	94.4
ENPP7	2	-0.717	67.6	0.441	67.3
ENPP7	3	-0.687	68.2	0.32	70.1
WHAMM	1	-0.29	76.1	-0.538	98
WHAMM	2	0.347	88.8	0.435	88.5
WHAMM	3	0.47	91.2	0.469	90.1
AKAP8L	1	-0.883	64.3	-0.426	80.4
AKAP8L	2	0.435	90.5	0.263	94.4
AKAP8L	3	-0.0336	81.2	-0.424	101
CYB5D1	1	-2.45	33.1	-1.14	49.9
CYB5D1	2	0.579	93.4	0.132	101
CYB5D1	3	0.526	92.4	0.382	93.3
SMYD2	1	-0.6	70	0.637	66.1
SMYD2	2	0.64	94.6	0.495	92.8
SMYD2	3	-0.556	70.8	-1.39	114
H2BC7	1	-0.826	65.5	2.23	40.6
H2BC7	2	-0.641	69.1	-0.704	93
H2BC7	3	0.394	89.7	-0.103	103
PPT2	1	4.54 (active)	172	2.91	89.5
PPT2	2	-0.0783	80.3	-0.153	93.5
PPT2	3	0.143	84.7	-0.582	110
YARS2	1	-0.54	71.2	-0.859	99.7
YARS2	2	-0.24	77.1	-0.707	104
YARS2	3	-0.763	66.7	-0.755	90.9
TMEM208	1	-1.29	56.2	-0.779	77.2
TMEM208	2	0.00249	81.9	0.0575	90.2
TMEM208	3	-0.0601	80.7	-0.313	97.9

Next part; the last 4 above are carried over.
gene	reagent	total luciferase, z-score	total luciferase, % of control	luciferase per cell, z-score	viable cells, % of control
YARS2	3	-0.763	66.7	-0.755	90.9
TMEM208	1	-1.29	56.2	-0.779	77.2
TMEM208	2	0.00249	81.9	0.0575	90.2
TMEM208	3	-0.0601	80.7	-0.313	97.9
TYRP1	1	-0.779	66.4	-0.475	84.1
TYRP1	2	-0.594	70.1	-0.423	87.5
TYRP1	3	3.23 (active)	146	2.74	79.5
TM4SF1	1	1.17	105	0.0845	115
TM4SF1	2	0.0023	81.9	-0.25	97.8
TM4SF1	3	-0.585	70.2	-1.28	110
IGF1	1	-0.427	73.4	-0.402	91.2
IGF1	2	1.73	116	0.304	120
IGF1	3	1.1	104	0.222	109
FPGT	1	0.919	100	0.612	95.3
FPGT	2	-1.67	48.6	-0.344	59.5
FPGT	3	-1.4	54	-0.539	69.5
HOXC13	1	2.75	137	2.31	83
HOXC13	2	-0.0756	80.4	0.204	85.1
HOXC13	3	4.83 (active)	178	3.91	71
BRINP3	1	-0.86	64.8	-0.73	87.7
BRINP3	2	2.96	141	2.24	87.2
BRINP3	3	-0.605	69.9	-0.713	94.2
PLCE1	1	-0.335	75.2	-0.661	100
PLCE1	2	-1.29	56.3	-1.34	89.4
PLCE1	3	1.12	104	0.53	101
